From article PMC4711005 come the findings set out here.

Sequences of proteins named here, by UniProt entry; tags and fusion partners are left off.
UniProt Q5S006: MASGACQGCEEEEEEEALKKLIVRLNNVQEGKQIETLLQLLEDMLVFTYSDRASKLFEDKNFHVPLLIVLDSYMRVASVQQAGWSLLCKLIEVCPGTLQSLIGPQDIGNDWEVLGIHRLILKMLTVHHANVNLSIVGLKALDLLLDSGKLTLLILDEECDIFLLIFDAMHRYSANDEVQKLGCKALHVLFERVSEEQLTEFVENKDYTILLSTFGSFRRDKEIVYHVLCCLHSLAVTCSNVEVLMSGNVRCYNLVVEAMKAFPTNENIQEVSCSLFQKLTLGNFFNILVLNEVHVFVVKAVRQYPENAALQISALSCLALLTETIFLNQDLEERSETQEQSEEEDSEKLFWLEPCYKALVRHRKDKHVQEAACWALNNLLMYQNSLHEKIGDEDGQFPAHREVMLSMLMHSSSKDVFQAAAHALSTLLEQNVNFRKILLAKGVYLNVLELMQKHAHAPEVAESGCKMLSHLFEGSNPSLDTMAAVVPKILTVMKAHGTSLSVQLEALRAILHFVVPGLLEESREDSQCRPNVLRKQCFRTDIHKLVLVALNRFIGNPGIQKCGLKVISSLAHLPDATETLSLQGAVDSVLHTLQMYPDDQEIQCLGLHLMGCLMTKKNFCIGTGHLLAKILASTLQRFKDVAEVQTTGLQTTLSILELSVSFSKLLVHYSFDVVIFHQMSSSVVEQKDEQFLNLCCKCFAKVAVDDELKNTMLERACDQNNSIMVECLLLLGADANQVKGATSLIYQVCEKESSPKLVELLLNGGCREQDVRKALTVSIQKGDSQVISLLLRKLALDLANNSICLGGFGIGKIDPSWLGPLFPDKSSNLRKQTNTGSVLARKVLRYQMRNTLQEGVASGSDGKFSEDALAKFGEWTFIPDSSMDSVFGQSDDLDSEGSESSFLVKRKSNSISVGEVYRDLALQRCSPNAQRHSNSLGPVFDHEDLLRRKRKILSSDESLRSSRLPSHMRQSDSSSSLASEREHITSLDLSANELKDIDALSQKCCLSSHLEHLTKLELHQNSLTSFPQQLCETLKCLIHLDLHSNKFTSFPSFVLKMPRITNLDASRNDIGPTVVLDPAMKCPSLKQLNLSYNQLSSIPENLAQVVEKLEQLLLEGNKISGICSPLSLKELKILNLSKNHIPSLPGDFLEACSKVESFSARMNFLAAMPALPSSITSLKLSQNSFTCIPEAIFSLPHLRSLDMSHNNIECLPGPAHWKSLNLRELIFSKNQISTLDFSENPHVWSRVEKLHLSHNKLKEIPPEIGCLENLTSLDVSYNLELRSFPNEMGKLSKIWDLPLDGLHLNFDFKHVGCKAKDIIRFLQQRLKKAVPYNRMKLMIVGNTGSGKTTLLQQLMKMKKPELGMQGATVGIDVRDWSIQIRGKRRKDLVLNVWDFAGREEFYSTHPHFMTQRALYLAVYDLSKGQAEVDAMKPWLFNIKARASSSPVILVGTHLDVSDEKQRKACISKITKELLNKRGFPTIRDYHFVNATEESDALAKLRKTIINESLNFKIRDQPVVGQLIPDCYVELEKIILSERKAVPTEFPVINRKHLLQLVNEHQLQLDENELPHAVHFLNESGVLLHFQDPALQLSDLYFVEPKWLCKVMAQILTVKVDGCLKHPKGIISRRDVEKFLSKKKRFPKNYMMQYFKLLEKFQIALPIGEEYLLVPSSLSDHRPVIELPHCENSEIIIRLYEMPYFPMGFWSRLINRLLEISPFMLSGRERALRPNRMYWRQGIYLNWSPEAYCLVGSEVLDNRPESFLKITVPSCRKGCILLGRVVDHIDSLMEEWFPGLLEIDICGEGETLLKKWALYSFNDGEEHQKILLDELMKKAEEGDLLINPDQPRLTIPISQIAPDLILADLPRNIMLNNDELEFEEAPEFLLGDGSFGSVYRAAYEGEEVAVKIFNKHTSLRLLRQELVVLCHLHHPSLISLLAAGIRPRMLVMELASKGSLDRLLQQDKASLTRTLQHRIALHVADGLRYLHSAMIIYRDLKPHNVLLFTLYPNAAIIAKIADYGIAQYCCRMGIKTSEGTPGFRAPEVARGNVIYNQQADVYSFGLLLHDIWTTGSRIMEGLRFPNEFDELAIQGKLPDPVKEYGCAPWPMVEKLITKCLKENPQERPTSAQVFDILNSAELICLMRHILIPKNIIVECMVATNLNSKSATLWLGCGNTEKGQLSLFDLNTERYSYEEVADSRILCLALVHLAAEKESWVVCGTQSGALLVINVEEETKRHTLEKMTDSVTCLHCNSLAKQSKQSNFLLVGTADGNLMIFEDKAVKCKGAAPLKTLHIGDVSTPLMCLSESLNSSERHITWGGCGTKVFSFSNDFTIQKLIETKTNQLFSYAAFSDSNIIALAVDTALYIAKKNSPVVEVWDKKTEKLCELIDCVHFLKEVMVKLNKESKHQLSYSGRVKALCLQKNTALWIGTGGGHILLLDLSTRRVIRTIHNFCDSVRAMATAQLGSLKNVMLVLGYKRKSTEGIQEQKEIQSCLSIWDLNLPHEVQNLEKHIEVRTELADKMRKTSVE
UniProt Q5S007: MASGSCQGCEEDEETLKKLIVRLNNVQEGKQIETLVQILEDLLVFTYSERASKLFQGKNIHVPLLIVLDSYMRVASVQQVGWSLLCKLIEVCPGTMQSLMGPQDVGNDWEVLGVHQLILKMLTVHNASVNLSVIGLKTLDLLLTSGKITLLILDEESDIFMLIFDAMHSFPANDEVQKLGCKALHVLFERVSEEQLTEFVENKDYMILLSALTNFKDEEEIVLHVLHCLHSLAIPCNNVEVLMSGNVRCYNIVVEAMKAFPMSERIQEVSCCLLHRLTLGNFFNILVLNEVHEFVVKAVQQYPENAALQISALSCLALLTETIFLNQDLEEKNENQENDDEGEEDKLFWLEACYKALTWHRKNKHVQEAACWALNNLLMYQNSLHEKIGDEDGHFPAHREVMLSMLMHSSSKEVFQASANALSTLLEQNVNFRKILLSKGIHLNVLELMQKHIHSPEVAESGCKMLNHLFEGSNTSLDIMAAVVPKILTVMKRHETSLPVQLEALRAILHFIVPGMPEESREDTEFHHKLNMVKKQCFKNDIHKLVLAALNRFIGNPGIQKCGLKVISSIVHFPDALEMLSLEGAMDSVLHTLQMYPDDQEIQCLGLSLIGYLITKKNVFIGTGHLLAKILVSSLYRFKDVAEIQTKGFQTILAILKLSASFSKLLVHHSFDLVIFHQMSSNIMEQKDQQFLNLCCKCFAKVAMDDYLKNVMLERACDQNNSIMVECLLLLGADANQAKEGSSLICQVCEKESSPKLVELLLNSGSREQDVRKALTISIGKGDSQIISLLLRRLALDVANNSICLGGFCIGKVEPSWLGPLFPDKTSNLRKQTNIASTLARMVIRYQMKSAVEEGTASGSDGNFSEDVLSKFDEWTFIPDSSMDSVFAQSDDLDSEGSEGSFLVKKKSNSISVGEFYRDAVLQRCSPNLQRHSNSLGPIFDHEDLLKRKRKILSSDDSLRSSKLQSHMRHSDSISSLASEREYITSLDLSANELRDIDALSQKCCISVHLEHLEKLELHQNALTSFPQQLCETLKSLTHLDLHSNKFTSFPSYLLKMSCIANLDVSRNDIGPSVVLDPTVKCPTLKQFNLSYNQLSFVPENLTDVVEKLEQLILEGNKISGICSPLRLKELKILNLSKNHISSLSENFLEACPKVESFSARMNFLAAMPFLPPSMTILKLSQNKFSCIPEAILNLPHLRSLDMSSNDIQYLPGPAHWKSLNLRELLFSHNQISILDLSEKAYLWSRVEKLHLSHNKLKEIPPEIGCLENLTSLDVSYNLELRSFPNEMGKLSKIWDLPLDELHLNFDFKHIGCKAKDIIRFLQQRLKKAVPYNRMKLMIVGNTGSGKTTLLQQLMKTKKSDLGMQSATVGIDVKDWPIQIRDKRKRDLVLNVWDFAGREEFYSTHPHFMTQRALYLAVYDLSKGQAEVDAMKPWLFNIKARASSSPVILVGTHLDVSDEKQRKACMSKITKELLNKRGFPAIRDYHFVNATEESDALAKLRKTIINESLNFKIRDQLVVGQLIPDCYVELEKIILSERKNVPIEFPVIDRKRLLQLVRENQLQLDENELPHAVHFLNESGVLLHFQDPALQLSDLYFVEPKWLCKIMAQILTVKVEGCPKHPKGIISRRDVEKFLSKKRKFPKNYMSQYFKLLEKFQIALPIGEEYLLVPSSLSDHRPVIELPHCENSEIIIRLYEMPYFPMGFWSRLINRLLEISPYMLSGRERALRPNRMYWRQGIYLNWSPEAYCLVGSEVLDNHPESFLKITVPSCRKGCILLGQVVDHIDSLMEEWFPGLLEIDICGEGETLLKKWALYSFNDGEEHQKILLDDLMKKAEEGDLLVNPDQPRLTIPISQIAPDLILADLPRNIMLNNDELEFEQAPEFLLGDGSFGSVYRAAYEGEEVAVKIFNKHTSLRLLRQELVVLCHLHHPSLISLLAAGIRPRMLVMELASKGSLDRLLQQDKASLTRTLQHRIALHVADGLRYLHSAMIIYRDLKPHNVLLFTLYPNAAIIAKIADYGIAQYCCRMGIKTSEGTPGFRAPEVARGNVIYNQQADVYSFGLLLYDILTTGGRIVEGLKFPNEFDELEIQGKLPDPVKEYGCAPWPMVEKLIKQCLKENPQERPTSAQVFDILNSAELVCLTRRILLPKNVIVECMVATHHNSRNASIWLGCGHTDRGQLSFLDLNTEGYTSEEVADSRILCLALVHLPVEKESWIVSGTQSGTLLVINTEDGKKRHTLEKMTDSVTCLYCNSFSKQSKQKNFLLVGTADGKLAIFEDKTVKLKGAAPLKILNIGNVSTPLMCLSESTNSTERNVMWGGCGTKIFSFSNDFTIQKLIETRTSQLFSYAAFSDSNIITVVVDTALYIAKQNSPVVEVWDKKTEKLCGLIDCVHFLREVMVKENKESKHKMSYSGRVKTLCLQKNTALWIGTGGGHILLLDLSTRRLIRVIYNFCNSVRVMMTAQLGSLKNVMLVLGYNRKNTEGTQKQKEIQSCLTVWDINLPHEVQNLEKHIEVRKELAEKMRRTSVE

Results are given in words; binding and its absence hold for the method and conditions named. For some of these results: In cells and extracts the contact can be indirect. Some results given as binding are weak or reduced against the parent protein; the word gives no strength. For some of these results: Tags and fused reporters may be left off the sequences shown.

The target in experiment [1] is Flag-NSF full-length (human, aa 1-744) (human) (UniProt P46459). Description: co-IP; Flag-NSF purified from transfected HEK293T lysate with anti-Flag M2 affinity gel; a band of endogenous NSF is found with it.
Experiment [2] has as its target T1, Flag-NSF N domain (aa 1-205) (human) (UniProt P46459).
T1 sequence: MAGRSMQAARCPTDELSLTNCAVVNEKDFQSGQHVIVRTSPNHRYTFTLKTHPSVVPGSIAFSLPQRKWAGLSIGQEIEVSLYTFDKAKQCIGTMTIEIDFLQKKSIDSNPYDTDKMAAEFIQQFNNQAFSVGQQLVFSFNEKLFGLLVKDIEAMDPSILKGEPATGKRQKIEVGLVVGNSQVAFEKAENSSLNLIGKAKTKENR
In words: pull-down; Flag-NSF full-length or domains purified from HEK293T and bound to M2 Flag resin, adjusted to 2 μM, incubated with 600 μl mouse brain lysate (2.5 mg/ml) overnight at 4 °C; immunoblot with anti-LRRK2 (MJFF2); only the target purified.

In experiment [3] the target is Flag-NSF full-length (human, aa 1-744) (human) (UniProt P46459). The description is as above.
Experiment [4] shares this target. In words: SEC; HEK293T lysates with Flag-NSF alone or with 2xMyc-LRRK2 separated on Superose 6 10/300 in 20 mM Tris-HCl pH 7.5, 150 mM NaCl, 0.06 % Triton X-100; fractions analysed by dot blot with anti-Flag. Background: Size exclusion chromatography separates by hydrodynamic size, large species first.

As for “NSF, endogenous, HEK293T cells (from UniProt P46459 1-744)”, in experiment [1], the binding entry is listed as “binds”.

“LRRK2, endogenous, mouse brain lysate (from UniProt Q5S006 1-2527)”: the binding result in experiment [2] and in experiment [3] was “binds” each time.

For “2xMyc-LRRK2 (from UniProt Q5S007 1-2527) (enzyme)”, in experiment [4], the binding result was “binds”.
